# Measurements: the supplement of paper PMC7877785
# ± gives the uncertainty stated by the source. Many entries were measured with a wide error.
# Test: self-splicing fitness, log relative to wild type (ln ratio); higher = more splicing; Tetrahymena group I intron in knt gene, E. coli kanamycin selection, DiMSum; sequences stand for … in CUCUCU…GGAGGGAAAAGUUAUCAGGCAUGCACCUGGUAGCUAGUCUUUAAACCAAUAGAUUGCAUCGGUUUAAAAGGCAAGACCGUCAAAUUGCGGGAAAGGGGUCAACAGCCGUUCAGUACCAAGUCUCAGGGGAAACUUUGAGAUGGCCUUGCAAAGGGUAUGGUAAUAAGCUGACGGACAUGGUCCUAACCACGCAGCCAAGUCCUAAGUCAACAGAUCUUCUGUUGAUAUGGAUGCAGUUCACAGACUAAAUGUCGGUCGGGGAAGAUGUAUUCUUCUCAUAAGAUAUAGUCGGACCUCUCCUUAAUGGGAGCUAGCGGAUGAAGUGAUGCAACACUGGAGCCGCUGGGAACUAAUUUGUAUGCGAAAGUAUAUUGAUUAGUUUUGGAGUACUCGUGGUCG
# Summary of the method: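 Fitness was computed with DiMSum as the error-weighted combination of replicate fold changes, kanamycin versus none, each normalised to wild type. The library randomised all eight intron nucleotides of the P1ex region, with the intron placed in the knt kanamycin-resistance gene on pET-22b(+) in E. coli BL21(DE3). Six replicate transformations were grown overnight at 37°C or 30°C on LB agar with or without 25 μg/mL kanamycin, plus 100 μg/mL carbenicillin, 50 μM IPTG and 0.2% rhamnose. Pooled colonies were amplicon-sequenced on an Illumina HiSeq 2500.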
Sequence,self-splicing fitness (ln) (30 °C),self-splicing fitness (ln) (37 °C)
GUCCAGCAAUAUUACGGGCC,-4.75 ± 0.72,-3.05 ± 0.6
AUCGAGCAAUAUUACGAGAC,,-2.65 ± 0.63
CUCUAGCAAUAUUACGCCUU,,-3.56 ± 0.51
UUUGAGCAAUAUUACGGAGC,-2.02 ± 0.49,-1.88 ± 1.2
UUUAAGCAAUAUUACGUCGC,-3.77 ± 1,-2.39 ± 0.77
ACCGAGCAAUAUUACGCAGA,-2.2 ± 0.19,-2.51 ± 0.23
UGGGAGCAAUAUUACGAUAC,,0.526 ± 0.82
UGUUAGCAAUAUUACGAGAU,-3.59 ± 0.52,
AGAUAGCAAUAUUACGCCUC,-3.23 ± 0.26,-2.26 ± 0.29
UCGUAGCAAUAUUACGUAAC,,-2.23 ± 0.51
GCUGAGCAAUAUUACGGACC,-0.413 ± 0.76,1.15 ± 1.1
AGCGAGCAAUAUUACGAAAC,-2.08 ± 0.8,-3.39 ± 0.73
GGGUAGCAAUAUUACGAGCC,-3.48 ± 1.1,-0.693 ± 1.4
UUGAAGCAAUAUUACGGUGC,-1.96 ± 0.58,-2.93 ± 0.53
GGAAAGCAAUAUUACGCACC,,-2.66 ± 0.76
UACCAGCAAUAUUACGUAAG,-3.73 ± 0.15,-1.99 ± 0.15
CUGUAGCAAUAUUACGUCUA,-3.36 ± 0.53,
UCGAAGCAAUAUUACGCGUC,-3.59 ± 0.74,-0.484 ± 0.32
UUCCAGCAAUAUUACGAGCC,-3.5 ± 0.75,-0.681 ± 1.4
CACGAGCAAUAUUACGAAGC,-2.56 ± 0.58,
UUCUAGCAAUAUUACGGGCU,-3.73 ± 0.36,-3.76 ± 0.36
CUGUAGCAAUAUUACGAAUC,,-3.04 ± 0.74
CAUAAGCAAUAUUACGGUGG,-1.24 ± 0.075,-0.683 ± 0.088
CCCCAGCAAUAUUACGCGGA,-3.34 ± 0.15,-2.07 ± 0.12

Sequence,self-splicing fitness (ln) (30 °C),self-splicing fitness (ln) (37 °C)
UAUUAGCAAUAUUACGCUAA,-3.13 ± 1,
GGGGAGCAAUAUUACGUCUC,,-1.82 ± 0.54
CCGAAGCAAUAUUACGGUAC,-4.23 ± 0.73,
UAAGAGCAAUAUUACGGCCG,-1.79 ± 0.14,-0.743 ± 0.2
ACUUAGCAAUAUUACGCACG,-1.55 ± 0.1,-0.683 ± 0.13
CAACAGCAAUAUUACGCCCC,-0.755 ± 0.73,
AGAGAGCAAUAUUACGGAGC,-1.29 ± 0.82,-0.595 ± 1.4
UUGUAGCAAUAUUACGACCC,-2.24 ± 0.68,
UCCGAGCAAUAUUACGCCAC,,-2.49 ± 0.63
AUGAAGCAAUAUUACGAGCU,-1.52 ± 0.12,-0.173 ± 0.14
GAUAAGCAAUAUUACGACUC,0.0338 ± 0.1,0.785 ± 0.13
CCCCAGCAAUAUUACGCCCC,,-2.57 ± 0.55
CAGGAGCAAUAUUACGCUCC,,-1.29 ± 1.2
GGAUAGCAAUAUUACGGGAC,-2.5 ± 0.24,-2.15 ± 0.17
CGAUAGCAAUAUUACGCAUA,-3.25 ± 0.28,-1.8 ± 0.24
CGUCAGCAAUAUUACGAUGC,-4.73 ± 0.59,-3.36 ± 0.6
UACGAGCAAUAUUACGGCAC,-3.06 ± 0.76,
GUAGAGCAAUAUUACGGAGG,-3.36 ± 0.64,
UCAUAGCAAUAUUACGCGGC,,-2.05 ± 0.85
AUUCAGCAAUAUUACGCCAC,-3.88 ± 0.52,
GCAGAGCAAUAUUACGCACU,-3.7 ± 1.1,
CCGUAGCAAUAUUACGGACG,,-1.14 ± 0.82
CUUAAGCAAUAUUACGUACA,-4.16 ± 0.52,
GAAGAGCAAUAUUACGGACG,,-2.77 ± 0.53

Sequence,self-splicing fitness (ln) (30 °C),self-splicing fitness (ln) (37 °C)
GGAGAGCAAUAUUACGUUGA,-3.26 ± 1,
GGAGAGCAAUAUUACGCCUG,,-1.88 ± 1.2
CAGGAGCAAUAUUACGUGAU,-4.53 ± 0.46,-1.95 ± 0.23
CAGGAGCAAUAUUACGACGC,,0.000402 ± 1.2
CUGAAGCAAUAUUACGACGC,,-3.78 ± 0.73
UGAGAGCAAUAUUACGCUCG,-2.25 ± 1.1,
UGCAAGCAAUAUUACGAAGU,,-2.8 ± 0.61
GCGGAGCAAUAUUACGAAGU,-3.58 ± 0.43,-2.08 ± 0.36
CAAGAGCAAUAUUACGGGCU,-3.07 ± 0.67,
ACCUAGCAAUAUUACGGAUA,-1.65 ± 0.11,-1.59 ± 0.099
CUCGAGCAAUAUUACGAUCG,-3.43 ± 0.61,
ACAGAGCAAUAUUACGUGCC,,-3.9 ± 1
UGGGAGCAAUAUUACGAUAG,,-3.6 ± 0.59
AUCUAGCAAUAUUACGCGCG,-0.762 ± 0.095,-0.257 ± 0.12
CCAAAGCAAUAUUACGACAC,-4.67 ± 0.51,
CGUGAGCAAUAUUACGCCGA,-2.66 ± 0.8,
UUGGAGCAAUAUUACGUCAC,-1.54 ± 0.7,
CUGGAGCAAUAUUACGAGGU,-3.48 ± 0.23,-2.11 ± 0.17
GCAGAGCAAUAUUACGGUAU,,-4.44 ± 0.51
GGGGAGCAAUAUUACGAGCU,-3.07 ± 0.68,-2.54 ± 1.1
AUAUAGCAAUAUUACGUCCU,-0.548 ± 0.11,0.119 ± 0.12
GGGAAGCAAUAUUACGUCAA,,-2.08 ± 0.56
CAGGAGCAAUAUUACGUCGU,-4.55 ± 0.73,
CCUGAGCAAUAUUACGCGCC,,-0.73 ± 0.87

Sequence,self-splicing fitness (ln) (30 °C),self-splicing fitness (ln) (37 °C)
CUUAAGCAAUAUUACGCAUA,,-3.09 ± 0.6
CUGGAGCAAUAUUACGAGGA,,-3.06 ± 0.52
AUUGAGCAAUAUUACGCUAC,,-3.05 ± 0.53
CUUAAGCAAUAUUACGCAAA,,-1.96 ± 0.5
UUUUAGCAAUAUUACGAACA,0.425 ± 0.8,
UUAGAGCAAUAUUACGUAGU,-1.3 ± 0.21,-3.47 ± 0.42
GGGGAGCAAUAUUACGCCUC,-2.81 ± 1.1,-3.96 ± 0.73
CCACAGCAAUAUUACGGGGA,-3.12 ± 0.19,-2.51 ± 0.17
CUGCAGCAAUAUUACGCCGU,-4.42 ± 0.73,
GUAGAGCAAUAUUACGGCGG,-1.86 ± 0.12,-1.99 ± 0.18
AGAUAGCAAUAUUACGACGA,-0.422 ± 0.095,-0.749 ± 0.085
CGUGAGCAAUAUUACGCGGA,-4.06 ± 0.74,
CGGGAGCAAUAUUACGUACU,-4.62 ± 1,
AUGUAGCAAUAUUACGAAGA,-3.63 ± 0.73,
AUCCAGCAAUAUUACGCGGU,-2.02 ± 0.71,
GGGGAGCAAUAUUACGAAAA,-1.33 ± 0.69,-0.693 ± 0.82
CCGGAGCAAUAUUACGAUAA,-2.5 ± 0.63,-2.09 ± 0.56
UCGGAGCAAUAUUACGGACA,-1.52 ± 0.87,
UGGGAGCAAUAUUACGUCGC,,-1.02 ± 0.67
UUUGAGCAAUAUUACGCCUC,-2.53 ± 0.62,-0.879 ± 0.39
GGCAAGCAAUAUUACGACCC,-3.48 ± 1.1,-0.168 ± 0.66
UGGGAGCAAUAUUACGCCUG,,-1.66 ± 0.68
GUCUAGCAAUAUUACGGCAG,-3.15 ± 0.61,
CAUAAGCAAUAUUACGAUCA,-2.28 ± 0.21,-1.87 ± 0.2

# Single records, as listed above.
# CGGGAGCAAUAUUACGUACU as listed: self-splicing fitness (ln) (30 °C) = -4.62 ± 1
# AUGUAGCAAUAUUACGAAGA as listed: self-splicing fitness (ln) (30 °C) = -3.63 ± 0.73

# (cont.)

Sequence,self-splicing fitness (ln) (30 °C),self-splicing fitness (ln) (37 °C)
UGUGAGCAAUAUUACGUCGU,,-3.21 ± 0.74
CUUUAGCAAUAUUACGUUCC,-2.64 ± 0.5,-1.76 ± 0.67
CUGAAGCAAUAUUACGCCGC,,-1.71 ± 0.56
AGCAAGCAAUAUUACGUCGG,-2.93 ± 0.19,-1.59 ± 0.19
GGUGAGCAAUAUUACGUCAC,,-1.37 ± 1.2
AUGUAGCAAUAUUACGGCUC,,0.00657 ± 0.52
GCCCAGCAAUAUUACGCUGC,-4.66 ± 1,
GUACAGCAAUAUUACGUCCC,0.202 ± 0.52,0.947 ± 0.65
UAAUAGCAAUAUUACGCAUC,,-1.17 ± 0.76
UAGUAGCAAUAUUACGUAGC,-3.52 ± 0.22,-1.37 ± 0.2
GCGAAGCAAUAUUACGGACC,-1.32 ± 0.73,-1.8 ± 0.55
CCGUAGCAAUAUUACGCAGG,-4.73 ± 1,
AAUCAGCAAUAUUACGCGCU,-1.16 ± 0.075,-0.732 ± 0.084
AUAAAGCAAUAUUACGGGCU,-0.992 ± 0.08,-0.621 ± 0.1
UUUGAGCAAUAUUACGCAGU,,-2.28 ± 0.55
GGUGAGCAAUAUUACGCCCA,-0.226 ± 1.2,-1.88 ± 1.2
UCAAAGCAAUAUUACGUCCG,-0.781 ± 0.12,-0.625 ± 0.16
UCUAAGCAAUAUUACGAGCU,-4.69 ± 0.51,-3.25 ± 0.52
AAGAAGCAAUAUUACGAGGG,-3.5 ± 0.3,-2.32 ± 0.35
AAAUAGCAAUAUUACGCUAC,-3.47 ± 0.75,
AGUAAGCAAUAUUACGCCCA,-1.19 ± 0.37,-1.38 ± 0.5

# In another format: results already given.
Sequence	self-splicing fitness (ln) (30 °C)	self-splicing fitness (ln) (37 °C)
GGUGAGCAAUAUUACGUCAC		-1.37 ± 1.2
AUGUAGCAAUAUUACGGCUC		0.00657 ± 0.52
GCCCAGCAAUAUUACGCUGC	-4.66 ± 1	
GUACAGCAAUAUUACGUCCC	0.202 ± 0.52	0.947 ± 0.65
